Reference: US20140171520A1, “HIGHLY SOLUBLE STEVIA SWEETENER” (priority 2011, published 2014)
Some of these results come from one statement about several compounds together.

Assay: Solubility in reverse osmosis (RO) water at room temperature
Assay type: physicochemical
Conditions: g per 100 g solvent
Protocol: Hereinafter, unless specified otherwise the solubility of material is determined in reverse osmosis (RO) water at room temperature. Where the solubility is expressed as “%” it to be understood as number of grams of material soluble in 100 grams of solvent.

## Rebaudioside B [Reb B]
  water solubility: < 0.1%
